# PubChem BioAssay AID1259405, NCATS, 2018
# Test: 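Knock-downs that lift recombinant protein yield in hamster ovary cells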 (primary screen)
# System: Chinese hamster CHO-K1 ovary cells with stable secreted eGFP expression
# Knock-down reagent: single siRNA against mouse genes, 0.8 pmol siRNA per well (2 µl of 400 nM stock)
# Duration: 3 days
# Measured: 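Per-well intracellular GFP measured by laser scanning cytometry, plus viability from ATP luminescence, each relative to plate median of non-targeting control wells, in %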
# Direction: GFP, % of control: higher = more GFP per well, higher productivity; viability (ATP), % of control: higher = more viable cells (more ATP)
# Active means: 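a knock-down is called active if GFP reaches 120% or more of non-targeting control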
# Here is one part, drawn at random, of about 50,000 reagents. In the full data, about 4,000 (8%) were called active. 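Mouse siRNA library applied to hamster cells; one well for each siRNA.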 A number with no mark means an inactive call. Reagents against one gene are numbered here.
gene symbol,reagent no.,"GFP, % of control","viability (ATP), % of control"
Olfml2b (olfactomedin-like 2B),1,173 (active),77.9
Olfml2b (olfactomedin-like 2B),2,51.2,60.9
Olfml2b (olfactomedin-like 2B),3,90.4,114
Pdha2 (pyruvate dehydrogenase E1 alpha 2),1,82.1,79.4
Pdha2 (pyruvate dehydrogenase E1 alpha 2),2,83.7,83.3
Pdha2 (pyruvate dehydrogenase E1 alpha 2),3,115,112
Wap (whey acidic protein),1,107,103
Wap (whey acidic protein),2,42.1,63
Wap (whey acidic protein),3,94.4,95.9
Dnai1 (dynein axonemal intermediate chain 1),1,39.7,33.3
Dnai1 (dynein axonemal intermediate chain 1),2,60.8,57.5
Sipa1 (signal-induced proliferation associated gene 1),1,34.9,18.1
Sipa1 (signal-induced proliferation associated gene 1),2,82.5,72.5
Sipa1 (signal-induced proliferation associated gene 1),3,23.8,38.8
Tshz2 (teashirt zinc finger family member 2),1,28,35.6
Tshz2 (teashirt zinc finger family member 2),2,50.4,44.8
Tshz2 (teashirt zinc finger family member 2),3,77.8,86.7
Tcf12 (transcription factor 12),1,74.2,91.8
Tcf12 (transcription factor 12),2,89.7,71.9
Tcf12 (transcription factor 12),3,85.7,98.6
"Myh10 (myosin, heavy polypeptide 10, non-muscle)",1,58.4,77.4
"Myh10 (myosin, heavy polypeptide 10, non-muscle)",2,78.3,79.7
Ip6k2 (inositol hexaphosphate kinase 2),1,22.4,70
Ip6k2 (inositol hexaphosphate kinase 2),2,48,89.3
Ip6k2 (inositol hexaphosphate kinase 2),3,78.2,79.8
"Akr1c21 (aldo-keto reductase family 1, member C21)",1,108,113
"Akr1c21 (aldo-keto reductase family 1, member C21)",2,95.4,110
"Akr1c21 (aldo-keto reductase family 1, member C21)",3,64.8,82.5
Ncr1 (natural cytotoxicity triggering receptor 1),1,95,66.5
Ncr1 (natural cytotoxicity triggering receptor 1),2,42.2,58.3
Ncr1 (natural cytotoxicity triggering receptor 1),3,96.9,92.3
Hoxb4 (homeobox B4),1,76.6,85.5
Hoxb4 (homeobox B4),2,85.2,71.3
Hoxb4 (homeobox B4),3,163 (active),93.4
Eif4ebp2,1,39.7,47.6
Eif4ebp2,2,101,82.7
Eif4ebp2,3,118,107

Reprinted from the entries so far, 9 entries:
gene symbol,reagent no.,"GFP, % of control","viability (ATP), % of control"
Wap (whey acidic protein),1,107,103
Wap (whey acidic protein),2,42.1,63
Wap (whey acidic protein),3,94.4,95.9
Dnai1 (dynein axonemal intermediate chain 1),1,39.7,33.3
Dnai1 (dynein axonemal intermediate chain 1),2,60.8,57.5
Sipa1 (signal-induced proliferation associated gene 1),1,34.9,18.1
Sipa1 (signal-induced proliferation associated gene 1),2,82.5,72.5
Sipa1 (signal-induced proliferation associated gene 1),3,23.8,38.8
Tshz2 (teashirt zinc finger family member 2),1,28,35.6

Continued.
gene symbol,reagent no.,"GFP, % of control","viability (ATP), % of control"
Trav7d-6 (T cell receptor alpha variable 7D-6),1,53.4,70.2
Trav7d-6 (T cell receptor alpha variable 7D-6),2,39.6,46.4
Trav7d-6 (T cell receptor alpha variable 7D-6),3,95.5,129
Cfap184 (cilia and flagella associated protein 184),1,109,87.6
Cfap184 (cilia and flagella associated protein 184),2,73,71.5
Cfap184 (cilia and flagella associated protein 184),3,151 (active),160
Spag4 (sperm associated antigen 4),1,31.4,34.2
Spag4 (sperm associated antigen 4),2,35.8,43.1
Spag4 (sperm associated antigen 4),3,63.9,59
Trim62 (tripartite motif-containing 62),1,79.5,70.5
Trim62 (tripartite motif-containing 62),2,96.5,64.6
Trim62 (tripartite motif-containing 62),3,78.7,105
Spsb1 (splA/ryanodine receptor domain and SOCS box containing 1),1,93.6,94.4
Spsb1 (splA/ryanodine receptor domain and SOCS box containing 1),2,66.7,78.6
"Me2 (malic enzyme 2, NAD(+)-dependent, mitochondrial)",1,62.4,71
"Me2 (malic enzyme 2, NAD(+)-dependent, mitochondrial)",2,64.8,74.3
"Me2 (malic enzyme 2, NAD(+)-dependent, mitochondrial)",3,85.4,94.5
Cldn6 (claudin 6),1,30.6,27.9
Cldn6 (claudin 6),2,107,89.9
Cldn6 (claudin 6),3,127 (active),115
